Reference: the supplement of paper PMC10338343
± gives the standard deviation. The entries are a selection whose mix differs from that of the whole data set. Many entries were measured with a wide error.

What follows are sequences tested on MILI (PIWIL2) piRISC loaded with piRNA #2 (26 nt) (assay: pre-steady-state target cleavage rate (min^-1); MIWI and MILI are mouse PIWI proteins and EfPiwi is from a freshwater sponge; tags in brackets are library labels; higher = faster piRNA-guided slicing of the target). Details: guide: piRNA #2 5'p-UUAGGUAACCCAGUAGAUCCAGAGGA; auxiliary factor: 500 nM mouse GTSF1.
Summary of the method: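 At 33 °C in HEPES–potassium acetate buffer, a transcribed, DNA-blocked target RNA library […] was exposed for 0–8 or 0–960 min to 1 nM active affinity-purified piRISC carrying a single synthetic guide, with or without 500 nM GTSF1 partner protein. Uncleaved targets were sequenced and normalised to depth and to weakly complementary targets. With three trials pooled and k3 capped at 0.0001 min^-1, a burst-and-steady-state fit produced the pre-steady-state cleavage rate.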
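Note: 1 nM active piRISC with 0.1 nM target library at 33 °C single turnover.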

Sequence | pre-steady-state target cleavage rate
CUUAAGGAGACCUUGUACAGGGUUACCUAA | 0.000214 ± 0.024
CUUAAGGUCUGGAUCUACUGCGUUUCCUAA | 0.00254 ± 0.0048
CUUAUCCUCUGGUUCUACUGGGUAACCUAA | 0.268 ± 0.097
CUUAAGGUCUGGAUCUACGUGGGUUACCUAA | 0.000869 ± 0.0084
CUUAAGGAGAGGAUCAUCUGGGUUACCUAA | 0.000326 ± 0.016
CUUAAGGAGACCAUCAACUGCGUUACCUAA | 0.000146 ± 0.028
CUUAAGGACUGGAUCUUCUGGGUUAGCUAA | 0.0031 ± 0.011
CUUAAGGACAGGAUCUACUGGGUUACCAAA | 0.00498 ± 0.0074
CUUAAGGAGACGAUCUACUAGGGUUACCUAA | 0.00125 ± 0.0091
CUUAAGGACUGGAUGUACUGGGAUACCUAA | 0.00345 ± 0.01
CUUAUCCUCUAGGAUCUACUGGGUUACCUAA | 0.049 ± 0.012
CUUAACCUCUGGUUCUACUGGGUAACCUAA | 0.14 ± 0.044
CUUAACCUCUGGAUCUACUGGCUUACCUAA | 0.00249 ± 0.0045
CUUAACGUCUGGAUCUACUGGGUUACCUUA | 0.0827 ± 0.015
CUUAAGGAGACCUACUACUGGGUUACCUAU [g2:g16:cont:t1U] | 0.000547 ± 0.018
CUUAAGGUCUGGAUCUACUGGGAUACGUAA | 0.000959 ± 0.0092
CUUAAGCACUCGAUCUACUGGGUUACCUAA | 0.417 ± 0.15
CUUAAGGUCUGGUUCUACUCGGUUACCUAA | 0.00185 ± 0.0094
CUUAAGGAGACGAUCUACUGGGUUACCAUAA | 0.000969 ± 0.012
CUUAAGGUCUGGAACUACUCGGUUACCUAA | 0.00107 ± 0.015
CUUAAGGAGACCAUCUUCUGGCUUACCUAA | 0.000768 ± 0.0066
CUUAAGGUCUGCUACUACUGGGUUACCUAA | 0.00265 ± 0.01
CUUAAGGAGACCUACUACAGGGUUACCAAA | 0.000344 ± 0.02
CUUAAGGAGUCGAUCUACUGGGAUACCUAA | 0.000289 ± 0.027

Sequence | pre-steady-state target cleavage rate
CUUAAGGAGACGAUCUACUCGCUUACCUAA | 0.00115 ± 0.0036
CUUAAGGAGACCAUCUACACGGUUACCUAA | 0.000286 ± 0.022
CUUAAGGAGAGGUUGUACUGGGUUACCUAA | 0.00025 ± 0.019
CUUAAGGUCUGGAUCGUACUGGGUUACCUAA | 0.00269 ± 0.006
CUUAAGGAGACGAUCUACUGGGUUACCUCAA | 0.00227 ± 0.0036
CUUAAGGAGACGAUCUACUGGGUACCUAA | 0.000115 ± 0.02
CUUAAGCUCAGGAUCUACUGCGUUACCUAA | 0.0105 ± 0.0058
CUUAAGGAGUGGAACUACUGGGUUUCCUAA | 0.000409 ± 0.019
CUUAAGGACUGGAUCUACUGCGUUACCUAA | 0.00443 ± 0.012
CUUAAGGAGACCUACUACUGGGUAACCUUA | 0.000153 ± 0.053
CUUAAGGAGACCAUCAACUGGGUUACCUUA | 0.000432 ± 0.036
CUUAAGGAGACCUACUACUGGCAUACCUAA | 0.000133 ± 0.032
CUUAAGGAGACGAUCUACGGGUUACCUAA | 0.000947 ± 0.0085
CUUAAGGAGACCUUCUACUCGGUUACCAAA | 0.000415 ± 0.022
CUUAAGGACUGCAUCUACUGGGAUACCUAA | 0.00495 ± 0.011
CUUAAGGUGUGGAUCAACUGGGUUACCUAA | 0.014 ± 0.0076
CUUAAGGAGACCUAGAUGAGCGUUACCAAA | 0.000351 ± 0.025
CUUAAGGAGAGGAUCUUGUGGGUUACCUAA | 0.000677 ± 0.014
CUUAAGGAGAGGAUCUACUGGGUUACUUAA | 0.00398 ± 0.0049
CUUAAGGAGACCUUCUACUGGGUUACCUGA | 0.000562 ± 0.017
CUUAAGGUCUGGAUCUUCUCGGUUACCUAA | 0.00105 ± 0.011
CUUAAGGACUGGAUCUACUCGGUUACCUUA | 0.000647 ± 0.025
CUUAAGGAGUGGAUGUACUGGGUUACGUAA | 0.0019 ± 0.013
CUUAAGGACUGGAUCUUCUCGGUUACCUAA | 0.000521 ± 0.028

Part of the list above, with each value named.
CUUAAGGAGAGGAUCUUGUGGGUUACCUAA
  pre-steady-state target cleavage rate: 0.000677 ± 0.014
CUUAAGGAGAGGAUCUACUGGGUUACUUAA
  pre-steady-state target cleavage rate: 0.00398 ± 0.0049

The list continues:

Sequence | pre-steady-state target cleavage rate
CUUAAGGAGUGGAUCUAGUGGGUUACCUAA | 0.0231 ± 0.0069
CUUAAGGAGUGGAUCACUGGGUUACCUAA | 0.000946 ± 0.0076
CUUAAGCUCUGGAUCUACUCGGUUAGCUAA | 0.000639 ± 0.013
CUUAAGGAGACGAUCUACUGGCUUACCUAA | 0.000515 ± 0.022
CUUAAGGAGACCAUCUACUGGGUAACCUAA | 0.00084 ± 0.0092
CUUAAGGAGUGGAUCUUCUCGGUUACCUAA | 0.000565 ± 0.021
CUUAAGGAGAGGAUCUACUGGGGUACCUAA | 0.00126 ± 0.007
CUUAAGGACUGGAUCUACUGGGUAAGCUAA | 0.00155 ± 0.013
CUUAAGGAGAGGAUCUACUGGGUCACCUAA | 0.00234 ± 0.0035
CUUAUCCUCUGGAUCAACUGGGUUUCCUAA | 0.199 ± 0.072
CUUAAGGAGACCUAGAUGUGGGUUACCUA | 0.000167 ± 0.045
CUUAACACUCUGGAUCUACUGGGUUACCUAA | 0.0824 ± 0.024
CUUAAGGAGUCGAUCUACUGCGUUACCUAA | 0.00114 ± 0.012
CUUAAGGAGAGGAUCUACUGCGUUACGUAA | 0.000319 ± 0.028
CUUAAGGAGAGGAAGUACUGGGUUACCUAA | 0.000369 ± 0.014
CUUAAGGAGAGGUUCUACUGGGUUACCAAA | 0.00146 ± 0.0061
CUUAAGGAGACCUAGAUCUGGGUUAGCCUAA | 0.000437 ± 0.034
CUUAAGGAGAGGAUCAACUGGGUUACCAAA | 0.000203 ± 0.02
CUUAAGGAGACCUUCUACUGGGCUACCUAA | 0.000501 ± 0.02
CUUAAGGAGACCUACUACUGGCUUACGUAA | 0.000313 ± 0.029
CUUAAGGAGACCUACUACUGGGUUAGCUAA | 0.000478 ± 0.014
CUUAAGGACUGCAUCUACUGGGUAACCUAA | 0.00409 ± 0.01
CUUAAGGAGACCUAGUAGCUGGGUUACCUAA | 0.000189 ± 0.053
